Numbering of substitutions follows the chain as printed. Results are given in words; binding and its absence hold for the method and conditions named. Some binding calls cover weakened binding; strength is not graded here.

Binding data for 6 molecules are collected here from US12173030.

First the molecules themselves.
T1: human myelin oligodendrocyte glycoprotein (MOG) (human) (UniProt Q16653)
T1 sequence (looked up): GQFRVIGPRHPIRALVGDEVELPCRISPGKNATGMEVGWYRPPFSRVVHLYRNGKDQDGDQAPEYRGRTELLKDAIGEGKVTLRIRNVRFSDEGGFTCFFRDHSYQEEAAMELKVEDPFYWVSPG

B1: Clone 13 anti-human MOG scFv (scFv, not shown: small tags and cut ends)
scFv: EVQLLESGGGLVQPGGSLRLSCAASGFTFSSYAMSWVRQAPGKGLEWVSSINSAGGSTYYADSVKGRFTISRDNSKNTLYLQMNSLRAEDTAVYYCAKNSAYFDYWGQGTLVTVSSGGGGSGGGGSGGGGSTDIQMTQSPSSLSASVGDRVTITCRASQSISSYLNWYQQKPGKAPKLLIYDASNLQSGVPSRFSGSGSGTDFTLTISSLQPEDFATYYCQQTDTYPTTFGQGTKVEIK
B2: Clone 6 anti-human MOG scFv (scFv, not shown: small tags and cut ends)
scFv: EVQLLESGGGLVQPGGSLRLSCAASGFTFSSYAMSWVRQAPGKGLEWVSTISTYGDYTTYADSVKGRFTISRDNSKNTLYLQMNSLRAEDTAVYYCAKGSYTFDYWGQGTLVTVSSGGGGSGGGGSGGGGSTDIQMTQSPSSLSASVGDRVTITCRASQSISSYLNWYQQKPGKAPKLLIYSASYLQSGVPSRFSGSGSGTDFTLTISSLQPEDFATYYCQQSNATPSTFGQGTKVEIK
B3: Clone 17 anti-human MOG scFv (scFv, not shown: small tags and cut ends)
scFv: B2 scFv with T50S, Y54S, D56S, T59A, S100G, Y185T, N224D, A225G, T226N, S228T
B4: Clone 3 anti-human MOG scFv (scFv, not shown: small tags and cut ends)
scFv: EVQLLESGGGLVQPGGSLRLSCAASGFTFSSYAMSWVRQAPGKGLEWVSSISSYGSYTGYADSVKGRFTISRDNSKNTLYLQMNSLRAEDTAVYYCAKNGYAFDYWGQGTLVTVSSGGGGSGGGGSGGGGSTDIQMTQSPSSLSASVGDRVTITCRASQSISSYLNWYQQKPGKAPKLLIYGASALQSGVPSRFSGSGSGTDFTLTISSLQPEDFATYYCQQNDASPNTFGQGTKVEIK
B5: Clone 1 anti-human MOG scFv (scFv, not shown: small tags and cut ends)
scFv: EVQLLESGGGLVQPGGSLRLSCAASGFTFSSYAMSWVRQAPGKGLEWVSSISDYGNTTAYADSVKGRFTISRDNSKNTLYLQMNSLRAEDTAVYYCAKNANYFDYWGQGTLVTVSSGGGGSGGGGSGGGGSTDIQMTQSPSSLSASVGDRVTITCRASQSISSYLNWYQQKPGKAPKLLIYDASSLQSGVPSRFSGSGSGTDFTLTISSLQPEDFATYYCQQTSTYPGTFGQGTKVEIK
B6: Clone 10 anti-human MOG scFv (scFv, not shown: small tags and cut ends)
scFv: EVQLLESGGGLVQPGGSLRLSCAASGFTFSSYAMSWVRQAPGKGLEWVSGITNYGYTTYYADSVKGRFTISRDNSKNTLYLQMNSLRAEDTAVYYCAKSSYSFDYWGQGTLVTVSSGGGGSGGGGSGGGGSTDIQMTQSPSSLSASVGDRVTITCRASQSISSYLNWYQQKPGKAPKLLIYAASALQSGVPSRFSGSGSGTDFTLTISSLQPEDFATYYCQQSAYYPDTFGQGTKVEIK

The first assay addresses T1, human myelin oligodendrocyte glycoprotein (MOG) (human). Kind of assay: QC ELISA, purified scFv-myc-6xHis on target MOG.
For B1, the binding entry is reported as “binds”.

For B2, the binding entry is reported as “binds”.

Turning to B3, the binding result is reported as “binds”.

Consider B4, for which the binding entry was “binds”.

As for B5, the binding result is listed as “binds”.

As to B6, the binding result is “binds”.

For the next assay the target is unchanged. Kind of assay: monoclonal phage ELISA, positive clones. (An ELISA detects its analyte on a solid surface through an enzyme-linked reagent.)
In the case of B1, the binding entry is “binds”.

As to B2, the binding result was “binds”.

In the case of B3, the binding entry was “binds”.

On to B4, for which the binding result is listed as “binds”.

For B5, the binding result was “binds”.

Consider B6, for which the binding result was “binds”.

A further assay shares this target. Kind of assay: QC ELISA titration, seven concentrations, scFv induced at 16 C (FIG. 8).
For the molecule B1, the binding result is “binds”.

As for B2, the binding entry was “binds”.

As to B3, the binding entry is reported as “binds”.

On to B4, for which the binding result was “binds”.

As for B5, the binding result is “binds”.

Regarding B6, the binding result is recorded as “binds”.

A further assay has the same target. Kind of assay: soluble ELISA with cell lysates (30 C and 37 C).
As for B1, the binding result is reported as “binds”.

In the case of B2, the binding result is on record as “binds”.

Consider B3, for which the binding result is given as “binds”.

Turning to B4, the binding entry is reported as “binds”.

On to B5, for which the binding entry is “binds”.

For the molecule B6, the binding result is given as “binds”.
